Reference: patent US8142769B2, “Preparation and xenotransplantation of porcine islets” (Diabcell Pty Ltd, priority 2000, dated 2012)

Legend:
porcine islets = assay: Static glucose stimulation (SGS): in vitro insulin secretion of porcine islets in culture; format: cell-based; conditions: Lignocaine during pancreatic digestion
Source text: Static glucose stimulation (SGS) is used to assess in vitro function of the porcine islets by exposing them to low and high concentrations of glucose and theophylline. Determination of the in vitro insulin secretory capacity is undertaken on both free islets (after 3 days in culture) and after their subsequent encapsulation.
Keep the cells 3 days in culture before Static Glucose Stimulation (SGS). SGS involves exposure of the cells to low and high concentration of glucose to check insulin production. […]
Islet endocrine function was assessed after 3 days in culture via static glucose stimulation. Islets isolated with Lignocaine during digestion produced a 3-fold increase in insulin secretion in response to glucose challenge.

7 d old porcine pancreas = assay: Islet yield from enzymatic digestion of neonatal porcine pancreas (DTZ staining)

Structure (SMILES): CCN(CC)CC(=O)Nc1c(C)cccc1C [Lignocaine, reference compound]
- Increase of insulin production/g of pancreas (porcine islets): 6 fold
- Increase in islet yield (7 d old porcine pancreas; 1 mM during Collagenase digestion of 7 d old porcine pancreas): 2 fold
- Average islet yield (7 d old porcine pancreas; Collagenase digestion of 7 d old porcine pancreas, with or without 1 mM Lignocaine): 88,183 IEQ/g
